Laboratory results taken from US12538701B2, “Compound and organic light emitting device comprising the same” (LG Chem, Ltd., priority 2020, dated 2026).

Assay: Organic light emitting device evaluation with the compound as dopant of the light emitting layer
Description: A glass substrate thinly coated with indium tin oxide (ITO) to have a thickness of 500 Å was put into distilled water in which a detergent was dissolved, and ultrasonically washed. In this case, a product manufactured by Fischer Co., was used as the detergent, and distilled water twice filtered using a filter manufactured by Millipore Co., was used as the distilled water. After the ITO was washed for 30 minutes, ultrasonic washing was conducted twice repeatedly using distilled water for 10 minutes. After the washing using distilled water was completed, ultrasonic washing was conducted using isopropyl, and acetone solvents, and drying was conducted, and then the substrate was cleaned for 5 minutes, and then transferred to a glove box.
A coating composition, in which the following Compound B and the following Compound C (weight ratio of 2:8) were dissolved in 20 wt/v % cyclohexanone, was spin-coated (4000 rpm) on the ITO transparent electrode, and heat-treated (cured) at 200° C. for 30 minutes to form a hole injection layer with a thickness of 400 Å. A coating composition, in which the following Compound A (Mn: 27,900; Mw: 35,600; measured by gel permeation chromatography (GPC) on Agilent 1200 series, relative to PC standards) was dissolved in 6 wt/v % toluene, spin-coated (4000 rpm) on the hole injection layer, and heat-treated at 200° C. for 30 minutes to form a hole transport layer with a thickness of 200 Å.
A coating composition, in which Compound 1 prepared in Preparation Example 1 and the following Compound D (weight ratio of 2:98) were dissolved in 2 wt/v % cyclohexanone, spin-coated (4000 rpm) on the hole transport layer, and heat-treated at 180° C. for 30 minutes to form a light emitting layer with a thickness of 400 Å.
After being transferred to a vacuum depositor, the following Compound E was vacuum-deposited to a thickness of 350 Å on the light emitting layer to form an electron injection and transport layer.
LiF and aluminum were sequentially deposited to have a thickness of 10 Å and 1000 Å, respectively, on the electron injection and transport layer, thereby forming a cathode.
In the above-mentioned process, the vapor deposition rate of the organic material was maintained at 0.4 to 0.7 Å/sec, the deposition rate of LiF was maintained at 0.3 Å/sec, the deposition rate of aluminum was maintained at 2 Å/sec, and the degree of vacuum during the deposition was maintained at 2×10^−7 to 5×10^−8 torr.
An organic light emitting device was manufactured in the same manner as in Example 1, except that the compounds shown in Table 2 below were used instead of Compound 1 as a dopant of the light emitting layer.
An organic light emitting device was manufactured in the same manner as in Example 1, except that the compounds shown in Table 2 below were used instead of Compound 1 as a dopant in the light emitting layer.
The driving voltage, external quantum efficiency (EQE), and lifetime were measured by applying a current of 10 mA/cm^2 to the organic light emitting devices manufactured in the Examples and Comparative Examples, and the results are shown in Table 2 below. At this time, the external quantum efficiency (EQE) was calculated as “(the number of emitted photon)/(the number of injected charge carrier)*100”, and T90 means the time required for the luminance to be reduced to 90% of the initial luminance (500 nit).

## c1ccc(-n2c3ccccc3c3cc(-c4ccc(N(c5ccc6ccccc6c5)c5ccc6c7c8ccc9c(c8ccc7n(-c7ccccc7)c6c5)c5ccc(N(c6ccc(-c7ccc8c(c7)c7ccccc7n8-c7ccccc7)cc6)c6ccc7ccccc7c6)cc5n9-c5ccccc5)cc4)ccc32)cc1 [Compound H, reference compound]
Device with compound as dopant of light emitting layer (2:98 with Compound D)
  Driving voltage (V @10 mA/cm^2): 4.66 V
External quantum efficiency, device with compound as dopant of light emitting layer
  EQE (% @10 mA/cm^2): 7.11%
Time for luminance to fall to 90% of initial luminance (500 nit), 10 mA/cm^2
  Lifetime (hr) (T90 @500 nit): 67 h
